Assay results reported in patent US20250019341A1, “COMPOUNDS AND METHOD OF USE THEREOF FOR TREATING BACTERIAL DISEASES” (PEKING UNIVERSITY, priority 2021, published 2025).

Assay: Quantification of erucamide in Arabidopsis leaves (GC-MS/MS)
Details: faah mutants

For `CCCCCCCC/C=C\CCCCCCCCCCCC(N)=O` (single isomer, unassigned) [Compound T3SI-1, erucamide], the “more erucamide than in Col-0” value was 40%.
